Data from patent publication US9096835B2, “DNA polymerase” (Medical Research Council, priority 2003, dated 2015).
Several values for one entry are separate records, joined by “and”; a condition that tells them apart may be missing. Equal values may be shown once.

Tested on: PCR fragments of the cloned Taq gene
Test: mutS ELISA fidelity assay
Type: biochemical
Settings: MutS assay and sequencing of PCR amplification products

Molecule | increase in the overall mutation rate compared to wtTaq
M1: Taq mutant G84A, D144G, K314R, E520G, F598L, A608V, E742G; SEQ ID NO: 1 (protein, Mutant Thermus aquaticus DNA polymerase) MRGMLPLFEPKGRVLLVDGHHLAYRTFHALKGLTTSRGEPVQAVYGFAKSLLKALKEDGDAVIVVFDAKAPSFRHEAYGGYKAARAPTPEDFPRQLALIKELVDLLGLARLEVPGYEADDVLASLAKKAEKEGYEVRILTADKGLYQLLSDRIHVLHPEGYLITPAWLWEKYGLRPDQWADYRALTGDESDNLPGVKGIGEKTARKLLEEWGSLEALLKNLDRLKPAIREKILAHMDDLKLSWDLAKVRTDLPLEVDFAKRREPDRERLRAFLERLEFGSLLHEFGLLESPKALEEAPWPPPEGAFVGFVLSRREPMWADLLALAAAAGGRVHRAPEPYKALRDLKEARGLLAKDLSVLALREGLGLPPGDDPMLLAYLLDPSNTTPEGVARRYGGEWTEEAGERAALSERLFANLWGRLEGEERLLWLYREVERPLSAVLAHMEATGVRLDVAYLRALSLEVAEEIARLEAEVFRLAGHPFNLNSRDQLERVLFDELGLPAIGKTEKTGKRSTSAAVLGALREAHPIVEKILQYRELTKLKSTYIDPLPDLIHPRTGRLHTRFNQTATATGRLSSSDPNLQNIPVRTPLGQRIRRAFIAEEGWLLVVLDYSQIELRVLAHLSGDENLIRVFQEGRDIHTETASWMFGVPREAVDPLMRRAAKTINFGVLYGMSAHRLSQELAIPYEEAQAFIERYFQSFPKVRAWIEKTLEEGRRRGYVETLFGRRRYVPDLEARVKSVRGAAERMAFNMPVQGTAADLMKLAMVKLFPRLEEMGARMLLQVHDELVLEAPKERAEAVARLAKEVMEGVYPLAVPLEVEVGIGEDWLSAKE | < 2 fold and 1.6 fold
M4: Taq mutant D58G, R74P, A109T, L245R, R343G, G370D, E520G, N583S, E694K, A743P; SEQ ID NO 2 (protein, Mutant Thermus aquaticus DNA polymerase) MRGMLPLYEPKGRVLLVDGHHLAYRTFHALKGLTTSRGEPVQAVYGFAKSLLKALKEGGDAVIVVFDAKAPSFPHEAYGGYKAGRAPTPEDFPRQLALIKELVDLLGLTRLEVPGYEADDVLASLAKKAEKEGYEVRILTADKDLYQLLSDRIHVLHPEGYLITPAWLWEKYGLRPDQWADYRALTGDESDNLPGVKGIGEKTARKLLEEWGSLEALLKNLDRLKPAIREKILAHMDDLKLSWDRAKVRTDLPLEVDFAKRREPDRERLRAFLERLEFGSLLHEFGLLESPKALEEAPWPPPEGAFVGFVLSRKEPMWADLLALAAARGGRVHRAPEPYKALGDLKEARGLLAKDLSVLALREGLGLPPDDDPMLLAYLLDPSNTTPEGVARRYGGEWTEEAGERAALSERLFANLWGRLEGEERLLWLYREVERPLSAVLAHMEATGVRLDVAYLRALSLEVAEEIARLEAEVFRLAGHPFNLNSRDQLERVLFDELGLPAIGKTEKTGKRSTSAAVLGALREAHPIVEKILQYRELTKLKSTYIDPLPDLIHPRTGRLHTRFNQTATATGRLSSSDPNLQSIPVRTPLGQRIRRAFIAEEGWLLVALDYSQIELRVLAHLSGDENLIRVFQEGRDIHTETASWMFGVPREAVDPLMRRAAKTINFGVLYGMSAHRLSQELAIPYEEAQAFIKRYFQSFPKVRAWIEKTLEEGRRRGYVETLFGRRRYVPDLEARVKSVREPAERMAFNMPVQGTAADLMKLAMVKLFPRLEEMGARMLLQVHDELVLEAPKERAEAVARLAKEVMEGVYPLAVPLEVEVGIGEDWLSAKE | 1.6 fold
